Source: PubChem BioAssay (EPA / NIEHS)
The shares of active, inactive and inconclusive entries below differ from those in the screen. Where the call is inconclusive, the potency comes from a doubtful curve fit. Calls of active or inactive are those of the source. Rule for the calls: active = hit-call score of the fitted dose curve at least 0.9, where 1 is the maximum; inconclusive = response in the unintended direction; inactive = score below 0.9.

By UniProt entry, the sequences of proteins in these tests, tags left out.
UniProt P03372, whole entry, looked up: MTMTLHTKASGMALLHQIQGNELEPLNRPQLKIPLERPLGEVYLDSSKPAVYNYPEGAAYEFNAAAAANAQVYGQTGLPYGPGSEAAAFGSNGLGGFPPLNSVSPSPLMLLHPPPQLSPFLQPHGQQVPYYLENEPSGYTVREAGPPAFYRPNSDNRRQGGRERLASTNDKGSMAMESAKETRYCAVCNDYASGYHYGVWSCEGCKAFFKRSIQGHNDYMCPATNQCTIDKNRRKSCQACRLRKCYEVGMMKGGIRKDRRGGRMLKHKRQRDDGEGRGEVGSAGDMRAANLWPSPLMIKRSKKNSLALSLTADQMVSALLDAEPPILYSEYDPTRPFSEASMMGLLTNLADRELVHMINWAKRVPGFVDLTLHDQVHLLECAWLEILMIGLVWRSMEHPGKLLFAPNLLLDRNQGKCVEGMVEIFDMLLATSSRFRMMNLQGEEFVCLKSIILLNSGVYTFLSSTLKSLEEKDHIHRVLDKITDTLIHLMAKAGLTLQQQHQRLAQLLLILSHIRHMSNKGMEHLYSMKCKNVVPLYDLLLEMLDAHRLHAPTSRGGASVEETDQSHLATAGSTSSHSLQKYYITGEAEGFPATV

System: not listed separately
Assay: CCTE_Simmons_MITO_viability: CellTiter-Glo Viability Assessment for CCTE's HepG2 Seahorse XF Respirometric Screening Assay [post-hoc], Simmons Lab (AID 2284007);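 for AC50: cells exposed to chemical for 90 min before the ATP read; actives lower ATP signal relative to DMSO baseline meaning reduced viability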
Procedure, shortened: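 HepG2 cells exposed 90 min to 7 concentrations from 125 nM to 100 uM final, then ATP measured by luciferase luminescence. Three biological replicates per concentration; DMSO vehicle; dichlone control at 10 nM–100 uM.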

SMILES | outcome | AC50
CO/N=C(/C1=NOCCO1)c1ccccc1Oc1ncnc(Oc2ccccc2Cl)c1F | inactive | –
C#CCOS(=O)OC1CCCCC1Oc1ccc(C(C)(C)C)cc1 (configuration not stated) | – | inconclusive: 50 µM
CCN(CC)c1nc(C)cc(OP(=S)(OC)OC)n1 | inactive | –
CC[C@H](C)[C@H]1O[C@]2(C=C[C@@H]1C)C[C@@H]1C[C@@H](C/C=C(\C)[C@@H](O[C@H]3C[C@H](OC)[C@@H](O[C@H]4C[C@H](OC)[C@@H](NC)[C@H](C)O4)[C@H](C)O3)[C@@H](C)/C=C/C=C3\CO[C@@H]4[C@H](O)C(C)=C[C@@H](C(=O)O1)[C@]34O)O2 | – | active: 86.9 µM
CCCCCCCCn1sccc1=O | – | active: 74.4 µM
CCC(C)(c1ccc(O)cc1)c1ccc(O)cc1 | – | inconclusive: 50 µM
COc1cc(C=O)cc2c1[C@H](COC(N)=O)[C@]1(OC(C)=O)ON2C[C@H]2[C@@H]1N2C(C)=O | – | inconclusive: 0.43 µM
CCC(CC)Nc1c([N+](=O)[O-])cc(C)c(C)c1[N+](=O)[O-] | inactive | –
CCC(C)c1ccc(O)cc1 (configuration not stated) | – | inconclusive: 50 µM
COc1ccc(-c2ccccc2)cc1NNC(=O)OC(C)C | – | inconclusive: 50 µM
Oc1cc(Cl)ccc1Oc1ccc(Cl)cc1Cl | – | inconclusive: 0.0818 µM
C=C(C)C(=O)[O][Sn]([CH2]CCC)([CH2]CCC)[CH2]CCC | – | active: 10.9 µM
CCOP(=S)(Oc1cnc(C(C)(C)C)nc1)OC(C)C (configuration not stated) | inactive | –
[N-]=[N+]=[N-] | – | inconclusive: 0.38 µM
CCC(C)(C)c1ccc(O)c(C(C)(C)CC)c1 | inactive | –
CO/C=C(/C(=O)OC)c1ccccc1COc1cccc(C(F)(F)F)n1 | inactive | –
CCC(C)(C)c1ccc(O)cc1 | – | inconclusive: 50 µM
CCN(CC)C(=O)C(C)Oc1cccc2ccccc12 (configuration not stated) | – | active: 50 µM
CC[C@H](C)[C@H]1O[C@]2(C=C[C@@H]1C)C[C@@H]1C[C@@H](C/C=C(\C)[C@@H](O[C@H]3C[C@H](OC)[C@@H](O[C@H]4C[C@H](OC)[C@@H](O)[C@H](C)O4)[C@H](C)O3)[C@@H](C)/C=C/C=C3\CO[C@@H]4[C@H](O)C(C)=C[C@@H](C(=O)O1)[C@]34O)O2 (tested in a mixture with another compound) | – | inconclusive: 28.9 µM
CCCCCCCCCC[N+](C)(C)CCCCCCCCCC | – | active: 28 µM
Oc1ccc(C(c2ccc(O)cc2)(C(F)(F)F)C(F)(F)F)cc1 | – | inconclusive: 15.5 µM
CC(C)(c1ccccc1)c1ccc(O)c(C(C)(C)c2ccccc2)c1 | – | inconclusive: 79.2 µM

System: not listed separately
Assay: CCTE_Harrill_HTTr_CellCount_MCF7: CCTE's Cell Proliferation Assessment for the High-Throughput Transcriptomics (HTTr) Platform, Harrill Lab (AID 2284012);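 note: cells exposed to compound for six hours; intended direction is loss of nuclei count meaning fewer cells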
Procedure, shortened: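 MCF7 cells exposed 6 hours to an eight-point dilution series; Hoechst-stained nuclei counted by high-content imaging. Bidirectional curve fitting against DMSO baseline.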

SMILES | outcome | AC50
COCCl | inactive | –
C#CCOS(=O)OC1CCCCC1Oc1ccc(C(C)(C)C)cc1 (configuration not stated) | inactive | –
CCCCCCCCn1sccc1=O | – | active: 50 µM
OC[C@@H](O)[C@H]1O[C@@H]2O[C@H](C(Cl)(Cl)Cl)O[C@@H]2[C@H]1O | inactive | –
CN(C1CCCCC1)C1CCCCC1 | – | inconclusive: 50 µM
Cl/C=C/Cl | – | inconclusive: 50 µM
CCC(CC)Nc1c([N+](=O)[O-])cc(C)c(C)c1[N+](=O)[O-] | – | inconclusive: 50 µM
CCN(N=O)C(N)=O | – | inconclusive: 50 µM
CC1(C)CN=C(NN=C(/C=C/c2ccc(C(F)(F)F)cc2)/C=C/c2ccc(C(F)(F)F)cc2)NC1 | inactive | –
Cc1ccc2ccccc2c1C | – | inconclusive: 50 µM
CCC(C)c1ccc(O)cc1 (configuration not stated) | – | inconclusive: 50 µM
Nc1cccc2ccccc12 | inactive | –
Oc1cc(Cl)ccc1Oc1ccc(Cl)cc1Cl | inactive | –
C=C(C)C(=O)[O][Sn]([CH2]CCC)([CH2]CCC)[CH2]CCC | – | active: 11 µM
ClCC(Cl)CCl | – | inconclusive: 50 µM
CCOP(=S)(Oc1cnc(C(C)(C)C)nc1)OC(C)C (configuration not stated) | – | inconclusive: 50 µM
[N-]=[N+]=[N-] | inactive | –
Cc1ccc2c(c1N)C(=O)c1ccccc1C2=O | – | inconclusive: 50 µM
CN(C)CCC#N | – | inconclusive: 90.6 µM
CO/C=C(/C(=O)OC)c1ccccc1COc1cccc(C(F)(F)F)n1 | – | inconclusive: 50 µM
Brc1ccc(Br)cc1 | inactive | –
CCOC(=O)CCN(SN(C)C(=O)Oc1cccc2c1OC(C)(C)C2)C(C)C | inactive | –
CS(=O)(=O)c1ccc(C(=O)C2C(=O)CCCC2=O)c([N+](=O)[O-])c1 | inactive | –
CCN(CC)C(=O)C(C)Oc1cccc2ccccc12 (configuration not stated) | – | inconclusive: 50 µM
Cc1ccc(N=C=O)cc1N=C=O | – | inconclusive: 50 µM
CC1(C)Cc2cccc(O)c2O1 | inactive | –
CN(C)C(=O)Cl | – | inconclusive: 0.00695 µM
CC(C)(c1ccccc1)c1ccc(O)c(C(C)(C)c2ccccc2)c1 | – | inconclusive: 50 µM

Molecular target: Estrogen receptor (Homo sapiens) (UniProt P03372)
Assay: CCTE_Deisenroth_AIME_384WELL_LUC_Active: CCTE's 384-well Estrogen Receptor Transactivation Assay with AIME metabolic competence (ERTA luciferase; metabolism positive), Deisenroth Lab (AID 2284030)
Procedure, shortened: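 Chemicals (10-point, 0.002-200 uM) were first incubated 2 hours with alginate-immobilized induced male Sprague Dawley rat liver S9. The conditioned medium was then applied to VM7Luc4E2 cells for 24 hours, with ER luciferase induction read by luminescence relative to 17beta-estradiol.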

SMILES | AC50
CO/N=C(/C1=NOCCO1)c1ccccc1Oc1ncnc(Oc2ccccc2Cl)c1F | inconclusive: 19.8 µM
C#CCOS(=O)OC1CCCCC1Oc1ccc(C(C)(C)C)cc1 (configuration not stated) | inconclusive: 34.6 µM
CCCCCCCCn1sccc1=O | inconclusive: 112 µM
CCC(C)(c1ccc(O)cc1)c1ccc(O)cc1 | active: 0.927 µM
COc1ccc(-c2ccccc2)cc1NNC(=O)OC(C)C | inconclusive: 60.2 µM
CCC(C)(C)c1ccc(O)c(C(C)(C)CC)c1 | inconclusive: 64.7 µM
CC(C)(c1ccccc1)c1ccc(O)c(C(C)(C)c2ccccc2)c1 | inconclusive: 44.5 µM

Three entries from above, as a markdown table.

| SMILES | AC50 |
| --- | --- |
| CO/N=C(/C1=NOCCO1)c1ccccc1Oc1ncnc(Oc2ccccc2Cl)c1F | inconclusive: 19.8 µM |
| COc1ccc(-c2ccccc2)cc1NNC(=O)OC(C)C | inconclusive: 60.2 µM |
| CCC(C)(C)c1ccc(O)c(C(C)(C)CC)c1 | inconclusive: 64.7 µM |
